Patent US9206241B2 (priority 2012, dated 2015)

Test: general procedure: Fmoc solid-phase peptide synthesis; pre-loaded Fmoc amino acid trityl resin (0.2 mmol/g, Rapp Polymere GmbH); PyBOP (4 equiv) and DIPEA (8 equiv)
Conditions: whole synthesis, scale 25 μmol

## MAQEQTKRGGGGGDDDDIAGSTAAGQERREKLTEETDDLLDEIDDV LEENAEDFVRAYVQKGG-Glu(AMC)
Based on initial resin loading
  isolated yield: 4%
  isolated mass: 4.3 mg
